Experimental findings from the supplement of paper PMC10032668 are described below.

Amino acid sequences for entries named in this document (tags omitted).
DCTN3, O75935, UniProt O75935, whole entry: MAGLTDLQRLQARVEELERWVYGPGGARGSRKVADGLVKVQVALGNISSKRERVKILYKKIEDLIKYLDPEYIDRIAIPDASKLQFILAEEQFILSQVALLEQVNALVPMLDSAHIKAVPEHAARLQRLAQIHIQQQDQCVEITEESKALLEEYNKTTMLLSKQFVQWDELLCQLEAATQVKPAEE
CDC20, Q12834, UniProt Q12834, whole entry: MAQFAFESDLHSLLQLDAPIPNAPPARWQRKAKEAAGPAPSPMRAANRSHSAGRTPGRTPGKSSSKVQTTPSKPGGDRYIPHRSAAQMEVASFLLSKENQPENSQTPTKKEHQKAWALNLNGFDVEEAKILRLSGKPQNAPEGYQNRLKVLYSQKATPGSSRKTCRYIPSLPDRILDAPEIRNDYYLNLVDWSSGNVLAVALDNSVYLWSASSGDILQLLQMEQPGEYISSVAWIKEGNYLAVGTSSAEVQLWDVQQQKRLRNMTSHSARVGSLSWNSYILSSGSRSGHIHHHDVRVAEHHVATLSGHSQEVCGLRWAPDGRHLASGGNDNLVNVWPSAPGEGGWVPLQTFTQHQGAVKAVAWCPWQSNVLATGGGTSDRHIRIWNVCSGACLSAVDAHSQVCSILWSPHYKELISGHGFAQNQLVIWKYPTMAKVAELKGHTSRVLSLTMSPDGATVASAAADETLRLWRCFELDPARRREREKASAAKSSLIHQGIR
GRWD1, Q9BQ67, UniProt Q9BQ67, whole entry: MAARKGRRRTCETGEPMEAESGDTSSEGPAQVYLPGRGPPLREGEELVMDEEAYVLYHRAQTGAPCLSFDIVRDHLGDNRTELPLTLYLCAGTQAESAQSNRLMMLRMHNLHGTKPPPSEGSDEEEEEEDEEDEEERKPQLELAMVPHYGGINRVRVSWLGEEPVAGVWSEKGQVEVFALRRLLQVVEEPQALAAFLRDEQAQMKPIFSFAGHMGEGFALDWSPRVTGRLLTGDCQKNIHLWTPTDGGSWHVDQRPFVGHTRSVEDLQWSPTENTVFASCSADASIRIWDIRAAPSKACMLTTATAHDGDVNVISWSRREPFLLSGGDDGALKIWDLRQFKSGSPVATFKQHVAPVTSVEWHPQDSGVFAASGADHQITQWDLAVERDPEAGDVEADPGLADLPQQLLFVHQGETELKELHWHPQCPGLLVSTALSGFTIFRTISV
CKS1B, P61024, UniProt P61024, whole entry: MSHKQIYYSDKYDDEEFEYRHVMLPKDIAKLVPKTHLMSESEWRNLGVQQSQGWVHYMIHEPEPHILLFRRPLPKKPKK
CKS2, P33552, UniProt P33552, whole entry: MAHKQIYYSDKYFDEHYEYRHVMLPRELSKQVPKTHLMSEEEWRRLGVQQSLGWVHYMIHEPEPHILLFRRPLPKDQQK
NFRKB, Q6P4R8, UniProt Q6P4R8, whole entry: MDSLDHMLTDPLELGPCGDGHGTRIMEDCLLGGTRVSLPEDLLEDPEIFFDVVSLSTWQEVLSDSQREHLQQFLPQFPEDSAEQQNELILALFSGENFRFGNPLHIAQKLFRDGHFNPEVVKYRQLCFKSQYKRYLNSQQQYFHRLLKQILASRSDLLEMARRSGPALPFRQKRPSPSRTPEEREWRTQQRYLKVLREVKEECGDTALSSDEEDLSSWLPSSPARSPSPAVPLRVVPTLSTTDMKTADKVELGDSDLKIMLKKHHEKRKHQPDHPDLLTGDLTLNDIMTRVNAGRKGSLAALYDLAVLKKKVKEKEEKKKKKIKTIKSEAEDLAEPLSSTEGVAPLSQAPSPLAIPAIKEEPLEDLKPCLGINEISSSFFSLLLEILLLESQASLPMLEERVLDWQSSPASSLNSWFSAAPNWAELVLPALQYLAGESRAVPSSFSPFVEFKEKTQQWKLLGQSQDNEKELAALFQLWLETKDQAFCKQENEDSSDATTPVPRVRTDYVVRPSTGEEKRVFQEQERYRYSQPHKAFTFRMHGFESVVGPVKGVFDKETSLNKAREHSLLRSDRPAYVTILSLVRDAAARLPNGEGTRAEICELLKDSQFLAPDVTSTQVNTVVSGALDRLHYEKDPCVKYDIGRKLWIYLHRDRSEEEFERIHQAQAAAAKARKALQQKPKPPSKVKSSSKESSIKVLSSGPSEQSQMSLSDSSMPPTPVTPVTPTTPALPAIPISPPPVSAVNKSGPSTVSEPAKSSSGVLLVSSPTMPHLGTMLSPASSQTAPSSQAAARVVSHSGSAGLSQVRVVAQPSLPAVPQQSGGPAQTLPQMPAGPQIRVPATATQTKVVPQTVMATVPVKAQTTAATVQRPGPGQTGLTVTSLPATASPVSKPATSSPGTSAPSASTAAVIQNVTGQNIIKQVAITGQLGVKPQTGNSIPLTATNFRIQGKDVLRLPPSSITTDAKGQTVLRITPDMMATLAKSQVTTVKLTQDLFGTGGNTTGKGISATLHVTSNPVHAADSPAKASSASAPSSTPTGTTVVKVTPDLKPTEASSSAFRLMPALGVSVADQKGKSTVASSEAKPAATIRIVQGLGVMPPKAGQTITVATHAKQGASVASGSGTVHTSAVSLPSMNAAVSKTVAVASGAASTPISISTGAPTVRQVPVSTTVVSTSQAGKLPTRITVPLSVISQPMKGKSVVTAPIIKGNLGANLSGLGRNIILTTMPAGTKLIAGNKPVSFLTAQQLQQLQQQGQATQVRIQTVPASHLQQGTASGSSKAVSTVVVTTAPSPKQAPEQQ
ATP6AP1, Q15904, UniProt Q15904, whole entry: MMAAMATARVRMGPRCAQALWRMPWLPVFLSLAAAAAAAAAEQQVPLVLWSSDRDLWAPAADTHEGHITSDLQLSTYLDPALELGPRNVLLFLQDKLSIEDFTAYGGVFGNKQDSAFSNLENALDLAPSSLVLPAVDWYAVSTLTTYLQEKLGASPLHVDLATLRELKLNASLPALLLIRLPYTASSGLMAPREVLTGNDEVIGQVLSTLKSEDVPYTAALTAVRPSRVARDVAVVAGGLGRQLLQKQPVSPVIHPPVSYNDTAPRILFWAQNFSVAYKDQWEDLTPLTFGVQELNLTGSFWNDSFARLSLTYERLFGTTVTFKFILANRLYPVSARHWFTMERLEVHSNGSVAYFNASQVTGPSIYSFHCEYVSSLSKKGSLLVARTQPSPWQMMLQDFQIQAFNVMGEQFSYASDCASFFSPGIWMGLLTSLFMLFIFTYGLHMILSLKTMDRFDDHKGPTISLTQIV

Common to all, as to test: PRISMA enrichment of interactor (LFQ) in peptide spot vs all other peptide spots (log2 fold change); higher = stronger / more specific binding of the interactor to the peptide
One assay concerns the target ASPM, Q8IZT6. As to the method: (§1)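 PRISMA: 221 full-length sORF-encoded peptides (3-15 aa), plus SOS1/GLUT1 control peptides, were spot-synthesized on cellulose membranes in triplicate. Membranes were incubated with HEK293T lysate, and bound proteins were identified by LC-MS/MS with LFQ. Enrichment is the log2 fold change versus all other peptide spots; only significant interactors are listed (cutoff c=6, x0=2.8).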

The next assay concerns the target DCTN3, O75935. On the procedure: as §1
For a further assay, the target named is GAS1, P54826. As to the method: as §1
The target of a further assay is RCN2, Q14257. On the procedure:
as §1

The target in a further assay is SAPCD2, Q86UD0. As to the method:
as §1

The next assay deals with AUH, Q13825. On the procedure: as §1
In another assay the target is ILVBL, A1L0T0. On the procedure: as §1
Another assay deals with RAB3GAP1, Q15042. As to the method:
as §1

A further assay concerns the target SSU72, Q9NP77. On the procedure:
as §1

The target in another assay is AURKA, O14965. As to the method: as §1
Another assay has as its target CDC20, Q12834. As to the method: as §1
The target of the next assay is GRWD1, Q9BQ67. As to the method: as §1
Another assay concerns the target LSM12, Q3MHD2. As to the method:
as §1

The target in another assay is LYRM2, Q9NU23. As to the method:
as §1

Another assay concerns the target MRPL49, Q13405. As to the method:
as §1

Another assay concerns the target MRPL55, Q7Z7F7. As to the method: as §1
Another assay has as its target BOLA3, Q53S33. On the procedure:
as §1

The target of a further assay is CKS1B, P61024. On the procedure:
as §1

In the next assay the target is CKS2, P33552. On the procedure:
as §1

The target in a further assay is DNAJB11, Q9UBS4. As to the method: as §1
The target of the next assay is HCFC1, P51610. As to the method:
as §1

The target of another assay is ISCU, Q9H1K1. On the procedure: as §1
In a further assay the target is NFRKB, Q6P4R8. On the procedure: as §1
The target in another assay is UMPS, P11172. As to the method:
as §1

The next assay has as its target BAG6, P46379. On the procedure: as §1
Another assay deals with GC, P02774. On the procedure: as §1
For another assay, the target named is MRPL48, Q96GC5. As to the method:
as §1

The target in another assay is NUP54, Q7Z3B4. On the procedure:
as §1

For the next assay, the target named is TRIP13, Q15645. On the procedure:
as §1

The target in the next assay is FBXO21, O94952. As to the method:
as §1

The target of another assay is NT5DC2, Q9H857. As to the method: as §1
A further assay deals with ATP6AP1, Q15904. As to the method: as §1
Another assay concerns the target NUDT16L1, Q9BRJ7. As to the method: as §1
In another assay the target is POLDIP2, Q9Y2S7. As to the method:
as §1

Some of the results follow. Only hits are listed; about a third recur on repeated control peptides.

Turning to MPSSRAV [STAT1], the “PRISMA enrichment of interactor (log2)” value with ASPM, Q8IZT6 worked out at 4.32; in the assay with DCTN3, O75935 it was 4.44; with GAS1, P54826, 7.14; with RCN2, Q14257, 6.55; with SAPCD2, Q86UD0, 6.37.

MLRSCSLNQPKF [PNISR]: the “PRISMA enrichment of interactor (log2)” value with AUH, Q13825 was determined as 4.71; with ILVBL, A1L0T0, 6.33; with RAB3GAP1, Q15042, 5.49; in the assay with SSU72, Q9NP77, 3.81.

As for MRTVMCVLKL [ATM], the “PRISMA enrichment of interactor (log2)” value with AURKA, O14965 was found to be 6.93; in the assay with CDC20, Q12834 it was 4.07; with GRWD1, Q9BQ67 it was 5.39; in the assay with LSM12, Q3MHD2, 5.34; with LYRM2, Q9NU23, 4.62; in the assay with MRPL49, Q13405 it was 5.4. In addition, the “PRISMA enrichment of interactor (log2)” value with MRPL55, Q7Z7F7 was 7.07.

Consider MPLIQCLCLAVTC [TMEM69], for which the “PRISMA enrichment of interactor (log2)” value with BOLA3, Q53S33 is 5.88; with CKS1B, P61024, 5.39; with CKS2, P33552 it was 5.24; with DNAJB11, Q9UBS4, 5.76; with HCFC1, P51610, 5.91; in the assay with ISCU, Q9H1K1, 6.22. Further, the “PRISMA enrichment of interactor (log2)” value is 4.49 in the assay with NFRKB, Q6P4R8 and 5.76 in the assay with UMPS, P11172.

Regarding MERRVMVLPLIVETC [TRIM26], the “PRISMA enrichment of interactor (log2)” value with BAG6, P46379 is 4.92; in the assay with GC, P02774, 4.93; with ISCU, Q9H1K1, 6.66; in the assay with MRPL48, Q96GC5, 4.95; with NUP54, Q7Z3B4 it was 9.91; in the assay with TRIP13, Q15645, 5.07.

On to MEMVCMLLWKISLS [PCDH9], for which the “PRISMA enrichment of interactor (log2)” value in the assay with BOLA3, Q53S33 came to 5.42; with CKS1B, P61024 it was 5.18; with FBXO21, O94952, 5.21; with NT5DC2, Q9H857 it was 6.58.

On to MTGGGRGVWD [UBL3], for which the “PRISMA enrichment of interactor (log2)” value in the assay with ATP6AP1, Q15904 came out at 5.99; with NUDT16L1, Q9BRJ7 it was 5.77; with POLDIP2, Q9Y2S7, 6.57.
